Hit rate of the full screen: of about 1,800 compounds, about 710 (39%) were called active. Inconclusive means that the source gave no clear call. Such entries were picked first, then a sample of the others.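 Rule for the calls: active = luciferase signal rise whose fitted curve crosses a set activity limit at or below the top valid tested dose; inconclusive = flat fit with 30 to 70% rise, or poor fit; inactive = signal falling, flat within 30%, or crossing above top dose.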
Experiment: luciferase activators in glycosylation-insensitive reporter cells, dose response, counter-screen for N-linked glycosylation inhibitor project, D54 LucT cells, luminescence, cherry pick (AID 624404);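 note: 0% = median neutral control signal and 100% = twice that signal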
Details: D54 LucT luciferase reporter counterscreen, 24 h; at 19.5 µM (top of the series) unless noted

| Compound | activity increase (luciferase signal) |
| --- | --- |
| O=C(COc1ccc(C(=O)c2ccccc2)cc1)NCc1ccc(F)cc1 | inconclusive: 48.8% |
| COc1ccc(CN(C(=O)c2ccc(CN3CCOCC3)o2)C(C(=O)NCC2CCCO2)c2ccc(F)cc2)cc1 (stereo unspecified) | inactive: -5.22% |
| CCOC(=O)Cc1csc(/N=C/c2c(O)n(-c3ccc(C)c(C)c3)c(=O)c3ccccc23)n1 | inactive: 48.7% |
| COc1ccc(NC(=O)C(=O)NCC2CCCN2S(=O)(=O)c2cccs2)cc1 (stereo unspecified) | inconclusive: 32% |
| CCc1ccc(Oc2coc3cc(OCC(=O)Nc4cc(C)ccc4C)ccc3c2=O)cc1 | inactive: 1.63% |
| CCC1=Nc2cc(C(=O)NCc3ccco3)ccc2Sc2ccc(Cl)cc21 | inactive: -3.98% |
| CN(C)c1ccc(/C=C/C(=O)c2ccc(C(C)(C)C)cc2)cc1[N+](=O)[O-] | inactive: 13% |
| O=S(=O)(Nc1cccc2cccnc12)c1ccc(S(=O)(=O)N2CCCC2)cc1 | inactive: -5.43% |
| CCN(CC)CCOc1ccc2c(c1)C(=NNC(=O)c1ccccn1)c1cc(OCCN(CC)CC)ccc1-2 | inactive: -83.9% |
| NNC(=O)c1oc2nc(-c3ccco3)cc(-c3ccco3)c2c1N | inactive: 37.9% |
| CCCN(CCC)S(=O)(=O)c1ccc(C(=O)Nc2nc3c(s2)CCc2ccccc2-3)cc1 | inconclusive: 19.7% |
| CC(C)CC(NC(=O)c1ccc(Cl)cc1)C(=O)OCC(=O)c1ccc2c(c1)NC(=O)CO2 (stereo unspecified) | inactive: 19.6% |
| CCOC(=O)/C(=C/c1c(C)n(C)c2ccc([N+](=O)[O-])cc12)C(C)=O | inconclusive: 39.6% |
| COc1cc(COCC(O)CN2CCN(CCN3C(=O)c4cccc5cccc(c45)C3=O)CC2)cc(OC)c1OC (stereo unspecified) | inactive: -1.72% |
| CCn1c(=O)c2cc(C(=O)NCCN(C)C)sc2c2ccccc21 | inactive: 29.2% |
| COc1ccc(NC(=O)C(=O)c2cn(CC(=O)N3CCCC3)c3ccccc23)cc1 | inconclusive: 77.9% |
| COC(=O)c1[nH]c2cc(OC)c(OC)cc2c1/C=N/Nc1ccccc1 | inconclusive: 60.6% |
| CCOc1cccc2sc(Nc3nc4ccc(NC(C)=O)cc4s3)nc12 | inactive: -31.6% |
| O=C(NC1CCCCC1)C(c1cccnc1)N(C(=O)CCl)c1cccc(Cl)c1 (stereo unspecified) | inactive: -95.4% |
| O=C(N/N=C/c1ccc(Cl)cc1)c1cc(-c2cccnc2)nc2ccccc12 | inconclusive: 90.3% |
| Cc1cc(NC(=O)CN2C(=O)NC3(CCCCCC3)C2=O)ccc1Br | inconclusive: 37.3% |
| CN(C)CCCN1C(=O)c2cccc3c([N+](=O)[O-])ccc(c23)C1=O | inconclusive: 1.96% |

| Compound | activity increase (luciferase signal) |
| --- | --- |
| CC1(C(=O)NCCc2ccccc2)Cc2c(-c3ccc4c(c3)OCO4)ccnc2O1 (stereo unspecified) | inconclusive: 54.5% |
| COc1cc(/C=C/C(=O)/C=C(O)/C=C/c2ccc(O)c(OC)c2)ccc1O | inconclusive: 72.1% |
| CN1CCN(C(c2ccc(Br)cc2)c2cc(Cl)c3cccnc3c2O)CC1 (stereo unspecified) | inactive: 97.6% |
| CCOc1ccccc1C1CC(=O)Nc2cc3c(cc21)OCO3 (stereo unspecified) | inactive: 35.4% |
| COc1ccc(-c2cc(-c3ccc(O)cc3)nc(N)c2C#N)cc1OC | inconclusive: 38.7% |
| COc1ccc2cc(C)c3nnc(SCC(=O)Nc4nc(-c5ccc(F)cc5)cs4)n3c2c1 | inactive: -2.8% |
| Cn1c(=O)n(C)c2cc(NS(=O)(=O)c3ccccc3)ccc21 | inconclusive: 64.2% |
| CC(=O)N(C(C)=O)n1c(C)nc2sc3c(c2c1=O)CCCC3 | inconclusive: 23.1% |
| CCN(CC)c1ccc(NC(=O)c2cc(OC)cc(OC)c2)c(C)c1 | inconclusive: 20.4% |
| Cc1noc2ncnc(Sc3ccc(Br)cc3)c12 | inactive: 15.6% |
| CC1=Nc2cc(C(=O)NCC3CCCO3)ccc2Sc2ccc(C)cc21 (stereo unspecified) | inconclusive: 42.1% |
| C=CCn1cccc(/C=C/C(=O)c2ccc(C(C)(C)C)cc2)c1=S | inactive: -49.2% |
| COc1ccc(-c2cc(C)no2)cc1S(=O)(=O)Nc1ccccc1 | inconclusive: 72.2% |
| Nc1sc(-c2ccccc2)cc1-c1n[nH]c(=S)n1C1CCCCC1 | inconclusive: 58.5% |
| CCn1c2ccccc2c2cc(NC(=O)COC(=O)c3ccc(O)cc3)ccc21 | inactive: 5.23% |
| Cc1[nH]c2ccc(C(=O)N3CCN(c4cccc(Cl)c4)CC3)cc2c1C | inconclusive: 54% |
| O=C(CNC(=O)c1ccco1)N=Nc1c(O)n(CCc2ccccc2)c2ccccc12 | inconclusive: 4.95% |
| COc1ccc(C(=O)/C=C2/C(=O)Nc3ccccc32)c(OC)c1 | inconclusive: 64.3% |
| O=C(c1[nH]c(C(F)(F)F)nc1-c1ccccc1)N1CCN(c2cccc(C(F)(F)F)n2)CC1 | inconclusive: 53.8% |
| COc1cc2c(cc1OC)CN(C(=O)c1ccc3nc[nH]c3c1)CC2 | inconclusive: 41.9% |
| CCn1c(SCC(=O)Nc2ccc(C(C)=O)cc2)nc2c([nH]c3ccccc32)c1=O | inactive: -9.93% |
| Cc1cc(C)nc(/N=C(\N)Nc2ccc(OCc3ccccc3)cc2)n1 | inactive: -26.1% |

| Compound | activity increase (luciferase signal) |
| --- | --- |
| CO/N=C\CC(=O)Nc1ccc(Cl)cc1Cl | inconclusive: 87.3% |
| CCN(CC)CCn1c2ccccc2c2nc3ccccc3nc21 | inconclusive: 17.5% |
| COc1cccc(C(=O)Nc2ccc(N3CCN(C(=O)c4ccco4)CC3)cc2)c1 | inconclusive: 54.1% |
| Cc1ccc(NC(=O)CSc2nsc(SCC(=O)Nc3ccc(C)cc3C)c2C#N)c(C)c1 | inconclusive: 41.8% |
| CCCCCCC(=O)N(O)C1CC(=O)N(c2ccc(C)cc2)C1=O (stereo unspecified) | inconclusive: 55.6% |
| O=C(NCCCN1CCOCC1)c1cc(-c2ccc(F)cc2)on1 | inconclusive: 27.8% |
| Cc1c(C(=O)Nc2ccc3oc(-c4cccnc4)nc3c2)oc2ccccc12 | inactive: -6.21% |
| Cn1nc(C(=O)Nc2cccc(S(=O)(=O)N3CCCC3)c2)c2ccccc2c1=O | inconclusive: 92.1% |
| O=c1c2ccccc2sc2c(CO)ccc(NCCN3CCCCC3)c12 | inactive: 11.3% |
| COc1ccc(F)cc1C1=CC(=O)C[C@H](c2ccc3c(c2)OCO3)C1 | inactive: 32.4% |
| O=C(NCc1ccc2c(c1)OCO2)c1cc([N+](=O)[O-])ccc1N1CCOCC1 | inconclusive: 41.4% |
| O=C(Nc1cccc(C(F)(F)F)c1)c1sc(Cl)nc1C(F)(F)F | inactive: -21.3% |
| Cc1noc2ncnc(Sc3ccccc3Cl)c12 | inactive: 39.8% |
| COc1ccc2cc(CN(CC3CCCO3)C(=O)Nc3ccccc3OC)c(=O)[nH]c2c1 (stereo unspecified) | inconclusive: 65.2% |
| COc1ccc(C=CC(=O)c2ccc3cc(OC)c(OC)cc3c2)cc1OC | inactive: 11.3% |
| Cc1[nH]c2ccc(C(=O)OC(C)C(=O)NCc3ccccc3)cc2c1C (stereo unspecified) | inactive: 20.7% |
| CCN(CC)CCn1c2ccccc2c2nc3ccc([N+](=O)[O-])cc3cc21 | inconclusive: 77% |
| COc1cc(OC)c(C2=NOC(C(=O)NCc3cccs3)C2)cc1Cl (stereo unspecified) | inactive: 35.5% |
| COc1ccc(C(=O)CSc2nn3c(=O)c(C(C)(C)C)nnc3s2)cc1 | inactive: 22.2% |
| Cn1c(C(=O)NC2CCCCCC2)cc2c(=O)n(C)c3ccccc3c21 | inactive: 91.6% |
| COc1cc(C(=O)Nc2ccc3c(c2)ncn3C)cc(OC)c1OC | inconclusive: 85.5% |
| CC1=CC(C)[C@H](/C=N/n2c(=O)[nH]c3c([nH]c4ccc(Br)cc43)c2=O)C(C)C1 (stereo partly specified) | inactive: 9.8% |

| Compound | activity increase (luciferase signal) |
| --- | --- |
| COc1nc(=O)n(C2C=CC(=O)O2)cc1F (stereo unspecified) | inconclusive: 94.6% |
| CCOC(=O)C(CC)(CC)C(=O)/C=C/c1cccc(Br)c1 | inactive: 21.6% |
| Oc1c(Br)cc(Br)cc1CNc1cccc2cccnc12 | inconclusive: 34.3% |
| O=c1[nH]c(=O)c2nc3c4ccccc4c4ccccc4c3nc2[nH]1 | inconclusive: 75.7% |
| Nc1cc2c3c(cccc3c1)C(=O)N(CCN1CCCC1)C2=O | inconclusive: 48.4% |
| COc1ccc(OC)c(/C=C/c2ccc3cccc(O)c3n2)c1 | inactive: 15.1% |
| COc1ccc(/C=N/NC(=O)c2cccnc2)cc1COc1ccc(NC(C)=O)cc1 | inconclusive: 43.4% |
| Cc1[nH][nH]c(=O)c1C(c1ccc(-c2ccc(Cl)c(Cl)c2)o1)c1c(C)[nH][nH]c1=O | inactive: 11% |
| NC(=O)CC(NC(=O)c1ccc(Br)cc1)c1ccc(NC2CCCCC2)c([N+](=O)[O-])c1 (stereo unspecified) | inconclusive: 37% |
| CC1(C(=O)NCc2ccccc2)Cc2c(-c3ccc(C(N)=O)cc3)ccnc2O1 (stereo unspecified) | inconclusive: 49.1% |
| Cc1cc(N2CCN(c3ccc([N+](=O)[O-])c4cccnc34)CC2)c2ccccc2n1 | inconclusive: 30.2% |
| CCOC(=O)/C=c1/s/c(=C\c2c(OC)ccc3ccccc23)c(=O)n1CC(=O)NCC1CCCO1 (stereo unspecified) | inconclusive: 19.9% |
| Cc1ccc2c(c1)c1ccc3c(c1n2C)C(=O)C=CC3=O | inconclusive: -44.1% |
| CN1C(=O)c2cccc3c(S(=O)(=O)Nc4ccccn4)ccc1c23 | inconclusive: 87.8% |
| O=C(C=Cc1cccnc1)c1ccccc1 | inconclusive: 63.1% |
| Cc1cc2[nH]c3ccccc3c2c(C)n1 | inconclusive: 25.6% |
| COc1ccc(C(=O)c2ccc(N(C)C)cc2)c2ccccc12 | inconclusive: 25.4% |
| O=C(N/N=C/c1cccnc1)c1cc(-c2ccc(Br)cc2)nc2ccccc12 | inactive: 24.2% |
| COCCNc1nc(NCc2ccccc2)nc2ccsc12 | inactive: -8.4% |
| COC(=O)c1ccc(Oc2cc(C)nc(-n3nc(C)cc3C)n2)cc1 | inconclusive: 29.6% |
